Measurements taken from PMC10163288.
This is one part of the list.

B1: il2ra_site1_2b5i_normal_mot_HHH_b2_07170_af2_000000076_0001_1_16_H_._HHH_b2_07371_0001_0000200019_0000001_0_af2pred_dldesign_0_af2pred (protein)
chain: SSSSSSSVRDVIEKAEELYLAGKPEEAIKVLEDAIARYTALGRAAQVRLLEAVLKQLLSSSSSSS
B2: il2ra_site2_2erj_normal_mot_HHH_b2_05866_000000027_0001_43_57_H_._HHH_b1_02287_0002_0000900047_0000001_0 (protein)
chain: SSSSDDEVSELIAEVVEALREGDRELARELLEEAERLAREANNPYLERYVELARRDLELLSSSSS
B3: il2ra_site2_3nfp_normal_mot_HHH_b1_06059_000000180_0001_38_52_H_._HHH_b1_08143_0001_0000200019_0000001_0 (protein)
chain: SSSSDKEEEIERLLEEAEELIERGDPERAQELLARATHLAFELGDPELYALVARVLQLLAHSSSS
B4: il2ra_site2_3nfp_sap_22_mot_HHH_b1_04032_000000208_0001_43_56_H_._HHH_b1_07323_0001_0000500012_0000001_0_0001 (protein)
chain: SSSSDVEELIEEAHRLIEEGDTNEAARALVEATHLATRAGDPELARLLLELYRLILEQYGSSSSS
B5: il2ra_site2_3nfp_normal_mot_HHH_b2_01278_000000069_0001_18_35_H_._HHH_b2_04693_0001_0000500017_0000001_0_af2pred_0001_af2pred (protein)
chain: SSSSDELQQQVAIAEWIAEEEGDDELLRQLEELLERYEREGDPRVREELEELAKEIIKLSTSSSS
B6: il2ra_site2_2erj_normal_mot_HHH_eva_0077_000000062_0001_1_20_H_._HHH_b1_03327_af2_0001_0000700006_0000001_0 (protein)
chain: SSSSDERLRELYELAVKILHALARNDEELLKELIKEAKELAEELDSPSARELVEALEKLLDSSSS
B7: il2ra_site1_1z92_sap_17_mot_07d2d8a42fb0c6931fb03626c2a0eeb8_0001_000000072_0001_36_50_H_._247dac63e089d0360fbd2958dd0f7702_0001_0001_0000200021_0000001_0_0001 (protein)
chain: SSSSSAREYIEEMARALARTIRAKGNPRAREILEWLLRQARILGDEELRELIEKLLEELRSSSSS
B8: il2ra_site2_3nfp_normal_mot_HHH_b1_07095_000000265_0001_1_20_H_._HHH_b1_08537_af2_0001_0000500029_0000001_0 (protein)
chain: SSSSDEEREEAEELLKEAQELLEEGNPEEAEEVVSRAAALAARANDFELFALANELMEKIISSSS
B9: il2ra_site1_2b5i_normal_mot_HHH_b2_04910_000000118_0001_1_19_H_._HHH_b2_07602_af2_0001_0000200008_0000001_0_af2pred_0001_af2pred (protein)
chain: SSSSSSNEAFELLREANELARNGNPEEARKVLEEAEEVARELGDRSILRLVEAALRSTSSSSSSS
B10: il2ra_site1_1z92_sap_15_mot_HHH_b2_06068_af2_000000044_0001_1_20_H_._HHH_b1_04293_0001_0000600039_0000001_0_0001_af2pred_0001_af2pred_1 (protein)
chain: SSSSDERLRRLLELAVELAVKVAGLSEEQEEELQKLAEELAERGVDFEEAFQIVIKLAAELSSSS
B11: il2ra_site1_2b5i_normal_mot_HHH_b2_04910_000000118_0001_1_19_H_._HHH_b2_01555_af2_0001_0000700011_0000001_0_af2pred_0001_af2pred (protein)
chain: SSSSSSSAEELLKEANELDQNGNPEEAKEVLEQAEEEAEKLNNRSLLRSIRAALRLSESSSSSSS
B12: il2ra_site2_2erj_sap_25_mot_HHH_b2_07139_000000086_0001_40_57_H_._HHH_b1_02157_af2_0001_0000200030_0000001_0_0001_af2pred_0001_af2pred (protein)
chain: SSSSSSDHEEEVERLLEEAKHTPDLHEALKLLQEADQIAVENENDELLELVQKILRELSSSSSSS
B13: il2ra_site2_3nfp_normal_mot_HHH_b1_05627_af2_000000038_0001_43_56_H_._HHH_b1_04379_0001_0000100004_0000001_0 (protein)
chain: SSSSDKREEYLEAALLTLEEAIRFGDEEVVERLIQAIEEAAEAARDEEIEERLRKLEEEFSSSSS
B14: il2ra_site2_2erj_sap_16_mot_HHH_b1_00449_000000059_0001_39_52_H_._HHH_b1_03513_0001_0000400032_0000001_0_0001_af2pred_0001_1_af2pred_swapped (protein)
chain: DDAERAVRHALEWAIKYNDPDAFKTALRLAEWMLGDPEEARELLRELLEKLVPPEEVEEIEELLK
B15: il2ra_site1_3nfp_sap_9_mot_HHH_b2_00128_000000255_0001_39_54_H_._HHH_b2_00952_0001_0000300007_0000001_1_0001_af2pred_0001_af2pred_1 (protein)
chain: SSSSTEENRRAVELSRRILELLKEGDDEEAEELLKELEELAEKANDPVMKLFVERLERRLRSSSS
B16: il2ra_site2_2erj_normal_mot_c2bf78bdce995293a161f7082e24b401_0001_af2_000000082_0001_17_32_H_._HHH_b1_00942_af2_0001_0000200020_0000001_0 (protein)
chain: SSSSNEKLKELYRLANELLRLVFEGDEEKFEEVFQELERLIEELDSKSAREILEQLRRLLHSSSS
B17: il2ra_site2_2erj_normal_mot_678ce523d3521e26f84bf18760a59296_0001_000000113_0001_1_12_H_._HHH_b2_02924_af2_0001_0000200006_0000001_0_af2pred_0001_1_af2pred_swap … (protein)
chain: SSSSSSHVEEIAQRLAEEAEELGDKELAELALEIALRFARAAGDEEAEREIEELIEEVRGSSSSS
B18: il2ra_site1_2b5i_sap_21_mot_HHH_b1_01165_af2_000000109_0001_42_55_H_._9e027cdb5f26361229cf46a28aff2188_0001_1_af2_0001_0000600023_0000001_0_0001_af2pred_0001_af … (protein)
chain: SSSSDEKEEALELFRKAQELLENGNPEEAEEVLEKAAEIAEEAGNRSLLRAIEWALEQFESSSSS

target: il2ra, P01589; assay: yeast display titration

Apparent Kd, inactive:
B1 no binding seen
B2 no binding seen
B3 no binding seen
B4 no binding seen
B5 no binding seen
B6 no binding seen
B7 no binding seen
B8 no binding seen
B9 no binding seen
B10 no binding seen
B11 no binding seen
B12 no binding seen
B13 no binding seen
B14 no binding seen
B15 no binding seen
B16 no binding seen
B17 no binding seen
B18 no binding seen
